Reference: the supplement of paper PMC10849652
The list shows a part of the results.

Chains of the proteins cited; added tags and fusions are not shown. Lines headed by an entry give the natural chain unless they say otherwise; changes in a name come on top.
UniProt Q5T8P6: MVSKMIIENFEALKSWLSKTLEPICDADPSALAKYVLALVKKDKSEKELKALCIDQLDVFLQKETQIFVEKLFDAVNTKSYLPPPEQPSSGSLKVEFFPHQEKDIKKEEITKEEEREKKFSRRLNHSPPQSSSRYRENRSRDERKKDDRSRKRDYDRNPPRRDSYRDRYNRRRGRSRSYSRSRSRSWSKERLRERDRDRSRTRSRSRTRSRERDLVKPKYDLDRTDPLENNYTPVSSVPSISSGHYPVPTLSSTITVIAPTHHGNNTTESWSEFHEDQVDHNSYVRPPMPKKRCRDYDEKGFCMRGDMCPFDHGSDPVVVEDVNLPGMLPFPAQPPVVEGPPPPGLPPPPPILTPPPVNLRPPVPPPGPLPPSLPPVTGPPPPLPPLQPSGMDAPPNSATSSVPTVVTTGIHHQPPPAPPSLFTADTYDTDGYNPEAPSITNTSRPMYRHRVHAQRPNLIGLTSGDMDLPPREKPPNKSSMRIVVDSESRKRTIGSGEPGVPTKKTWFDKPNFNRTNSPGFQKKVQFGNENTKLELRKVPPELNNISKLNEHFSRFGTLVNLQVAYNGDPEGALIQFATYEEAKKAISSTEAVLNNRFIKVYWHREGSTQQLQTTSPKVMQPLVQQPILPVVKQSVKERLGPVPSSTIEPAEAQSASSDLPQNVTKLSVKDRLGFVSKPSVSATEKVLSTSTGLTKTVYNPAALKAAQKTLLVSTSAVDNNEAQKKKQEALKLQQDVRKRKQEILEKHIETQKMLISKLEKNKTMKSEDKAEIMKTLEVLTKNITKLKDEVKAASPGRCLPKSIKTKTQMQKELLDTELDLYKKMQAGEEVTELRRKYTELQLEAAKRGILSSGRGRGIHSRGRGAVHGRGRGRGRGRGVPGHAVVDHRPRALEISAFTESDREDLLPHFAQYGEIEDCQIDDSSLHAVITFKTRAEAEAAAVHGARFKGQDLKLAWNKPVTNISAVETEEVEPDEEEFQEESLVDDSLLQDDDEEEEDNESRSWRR
UniProt Q15291, whole entry, looked up: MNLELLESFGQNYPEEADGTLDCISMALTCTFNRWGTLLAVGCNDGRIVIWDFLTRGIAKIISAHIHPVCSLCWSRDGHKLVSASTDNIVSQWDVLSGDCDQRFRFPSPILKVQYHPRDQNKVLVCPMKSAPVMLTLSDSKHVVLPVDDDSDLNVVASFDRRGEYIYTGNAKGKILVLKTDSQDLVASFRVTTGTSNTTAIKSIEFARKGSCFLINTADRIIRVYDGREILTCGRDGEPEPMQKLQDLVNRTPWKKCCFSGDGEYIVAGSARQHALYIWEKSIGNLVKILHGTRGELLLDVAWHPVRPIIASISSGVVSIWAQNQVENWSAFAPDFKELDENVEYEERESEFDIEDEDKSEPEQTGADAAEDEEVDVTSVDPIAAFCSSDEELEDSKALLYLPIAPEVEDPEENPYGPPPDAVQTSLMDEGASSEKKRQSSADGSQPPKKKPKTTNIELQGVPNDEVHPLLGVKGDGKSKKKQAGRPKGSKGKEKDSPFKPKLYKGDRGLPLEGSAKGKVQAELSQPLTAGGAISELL
UniProt Q8N0T1: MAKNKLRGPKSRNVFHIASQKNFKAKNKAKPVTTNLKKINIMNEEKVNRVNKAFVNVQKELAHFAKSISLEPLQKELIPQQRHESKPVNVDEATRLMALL
UniProt P35241, whole entry, looked up: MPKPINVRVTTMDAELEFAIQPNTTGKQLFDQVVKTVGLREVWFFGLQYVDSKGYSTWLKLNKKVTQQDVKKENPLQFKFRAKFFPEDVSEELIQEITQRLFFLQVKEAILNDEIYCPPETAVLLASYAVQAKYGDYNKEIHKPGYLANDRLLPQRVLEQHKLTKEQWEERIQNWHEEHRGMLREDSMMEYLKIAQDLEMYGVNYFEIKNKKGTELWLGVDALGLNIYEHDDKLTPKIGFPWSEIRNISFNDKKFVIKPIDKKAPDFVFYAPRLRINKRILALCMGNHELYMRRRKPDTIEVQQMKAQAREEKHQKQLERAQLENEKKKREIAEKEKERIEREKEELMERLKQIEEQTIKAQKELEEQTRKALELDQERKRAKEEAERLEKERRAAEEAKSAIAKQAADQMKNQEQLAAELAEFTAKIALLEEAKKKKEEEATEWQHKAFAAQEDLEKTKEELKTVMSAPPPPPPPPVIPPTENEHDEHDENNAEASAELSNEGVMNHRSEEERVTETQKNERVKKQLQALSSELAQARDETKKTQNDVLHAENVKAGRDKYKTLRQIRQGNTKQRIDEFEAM
UniProt P35250, whole entry, looked up: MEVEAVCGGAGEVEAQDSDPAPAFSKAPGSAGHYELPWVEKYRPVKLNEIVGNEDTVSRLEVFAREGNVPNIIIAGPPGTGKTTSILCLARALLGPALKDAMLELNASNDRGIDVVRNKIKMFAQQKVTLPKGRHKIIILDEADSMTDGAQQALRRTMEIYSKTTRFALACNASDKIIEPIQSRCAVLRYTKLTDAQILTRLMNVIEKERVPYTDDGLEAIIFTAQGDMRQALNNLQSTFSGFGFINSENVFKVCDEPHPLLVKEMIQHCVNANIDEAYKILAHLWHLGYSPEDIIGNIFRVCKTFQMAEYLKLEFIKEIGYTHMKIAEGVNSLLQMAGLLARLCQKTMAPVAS
UniProt Q9Y256: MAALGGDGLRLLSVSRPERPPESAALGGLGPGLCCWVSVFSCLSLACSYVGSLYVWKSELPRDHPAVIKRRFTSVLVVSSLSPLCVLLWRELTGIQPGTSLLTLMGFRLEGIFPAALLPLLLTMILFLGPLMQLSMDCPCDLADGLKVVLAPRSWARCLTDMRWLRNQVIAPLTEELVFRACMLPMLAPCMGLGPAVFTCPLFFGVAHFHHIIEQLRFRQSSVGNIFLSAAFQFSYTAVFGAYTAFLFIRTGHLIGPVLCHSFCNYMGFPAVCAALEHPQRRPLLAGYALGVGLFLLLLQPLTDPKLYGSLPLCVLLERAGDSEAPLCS
UniProt Q00765: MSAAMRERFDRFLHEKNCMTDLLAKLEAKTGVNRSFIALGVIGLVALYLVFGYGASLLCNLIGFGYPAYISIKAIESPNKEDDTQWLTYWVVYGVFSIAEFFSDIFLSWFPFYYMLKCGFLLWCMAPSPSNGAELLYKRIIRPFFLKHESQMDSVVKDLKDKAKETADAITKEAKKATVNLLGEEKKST
UniProt Q9Y580: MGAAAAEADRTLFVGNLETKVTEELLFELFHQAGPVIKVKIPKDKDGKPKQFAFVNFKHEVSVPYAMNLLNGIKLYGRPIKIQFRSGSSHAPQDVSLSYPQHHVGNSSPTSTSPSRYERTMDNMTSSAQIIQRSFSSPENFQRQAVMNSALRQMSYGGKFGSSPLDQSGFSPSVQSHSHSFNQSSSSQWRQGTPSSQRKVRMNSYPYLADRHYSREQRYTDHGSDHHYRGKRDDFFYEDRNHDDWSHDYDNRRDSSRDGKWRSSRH
UniProt Q04864: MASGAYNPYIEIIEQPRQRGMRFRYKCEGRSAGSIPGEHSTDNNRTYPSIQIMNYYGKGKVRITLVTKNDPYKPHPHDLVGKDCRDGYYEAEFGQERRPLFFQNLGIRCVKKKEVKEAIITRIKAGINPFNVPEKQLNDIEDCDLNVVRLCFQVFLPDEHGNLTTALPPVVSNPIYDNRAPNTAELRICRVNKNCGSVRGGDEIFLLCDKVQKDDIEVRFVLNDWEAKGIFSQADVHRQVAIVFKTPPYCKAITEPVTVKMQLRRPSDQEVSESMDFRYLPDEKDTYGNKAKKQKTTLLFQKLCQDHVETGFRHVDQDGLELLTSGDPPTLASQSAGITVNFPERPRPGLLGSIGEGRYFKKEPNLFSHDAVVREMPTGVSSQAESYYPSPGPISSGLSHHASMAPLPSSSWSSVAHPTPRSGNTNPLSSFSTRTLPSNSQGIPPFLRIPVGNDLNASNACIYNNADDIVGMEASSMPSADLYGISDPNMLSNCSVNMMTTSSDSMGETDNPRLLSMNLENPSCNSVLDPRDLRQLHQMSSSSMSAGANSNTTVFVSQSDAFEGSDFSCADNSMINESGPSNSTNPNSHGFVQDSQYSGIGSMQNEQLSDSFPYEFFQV
UniProt Q9NTZ6: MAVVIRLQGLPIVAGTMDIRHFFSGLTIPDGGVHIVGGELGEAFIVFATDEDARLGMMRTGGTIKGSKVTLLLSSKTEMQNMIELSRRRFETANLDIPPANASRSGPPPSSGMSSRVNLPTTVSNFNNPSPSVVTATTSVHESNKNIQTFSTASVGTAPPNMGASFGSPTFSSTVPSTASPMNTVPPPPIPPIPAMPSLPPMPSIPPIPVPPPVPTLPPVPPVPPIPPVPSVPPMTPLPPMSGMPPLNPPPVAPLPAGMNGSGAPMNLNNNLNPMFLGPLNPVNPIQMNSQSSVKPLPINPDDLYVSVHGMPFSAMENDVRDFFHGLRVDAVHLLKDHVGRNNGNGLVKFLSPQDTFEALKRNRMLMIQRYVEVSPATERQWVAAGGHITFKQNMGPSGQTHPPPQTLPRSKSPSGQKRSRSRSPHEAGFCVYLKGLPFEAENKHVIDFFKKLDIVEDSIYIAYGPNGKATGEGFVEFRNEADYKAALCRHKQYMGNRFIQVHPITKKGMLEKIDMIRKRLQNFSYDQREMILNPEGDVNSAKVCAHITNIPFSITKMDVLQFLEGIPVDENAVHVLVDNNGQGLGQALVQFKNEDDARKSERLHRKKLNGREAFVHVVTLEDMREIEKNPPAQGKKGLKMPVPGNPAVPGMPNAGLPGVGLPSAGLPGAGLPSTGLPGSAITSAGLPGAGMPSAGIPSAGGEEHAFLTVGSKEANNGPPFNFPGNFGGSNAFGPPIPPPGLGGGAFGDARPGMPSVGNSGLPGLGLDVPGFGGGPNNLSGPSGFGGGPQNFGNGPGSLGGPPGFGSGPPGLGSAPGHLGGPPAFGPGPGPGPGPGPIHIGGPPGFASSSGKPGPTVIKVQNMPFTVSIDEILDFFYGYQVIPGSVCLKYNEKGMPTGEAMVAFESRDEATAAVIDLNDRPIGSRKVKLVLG
UniProt P35251: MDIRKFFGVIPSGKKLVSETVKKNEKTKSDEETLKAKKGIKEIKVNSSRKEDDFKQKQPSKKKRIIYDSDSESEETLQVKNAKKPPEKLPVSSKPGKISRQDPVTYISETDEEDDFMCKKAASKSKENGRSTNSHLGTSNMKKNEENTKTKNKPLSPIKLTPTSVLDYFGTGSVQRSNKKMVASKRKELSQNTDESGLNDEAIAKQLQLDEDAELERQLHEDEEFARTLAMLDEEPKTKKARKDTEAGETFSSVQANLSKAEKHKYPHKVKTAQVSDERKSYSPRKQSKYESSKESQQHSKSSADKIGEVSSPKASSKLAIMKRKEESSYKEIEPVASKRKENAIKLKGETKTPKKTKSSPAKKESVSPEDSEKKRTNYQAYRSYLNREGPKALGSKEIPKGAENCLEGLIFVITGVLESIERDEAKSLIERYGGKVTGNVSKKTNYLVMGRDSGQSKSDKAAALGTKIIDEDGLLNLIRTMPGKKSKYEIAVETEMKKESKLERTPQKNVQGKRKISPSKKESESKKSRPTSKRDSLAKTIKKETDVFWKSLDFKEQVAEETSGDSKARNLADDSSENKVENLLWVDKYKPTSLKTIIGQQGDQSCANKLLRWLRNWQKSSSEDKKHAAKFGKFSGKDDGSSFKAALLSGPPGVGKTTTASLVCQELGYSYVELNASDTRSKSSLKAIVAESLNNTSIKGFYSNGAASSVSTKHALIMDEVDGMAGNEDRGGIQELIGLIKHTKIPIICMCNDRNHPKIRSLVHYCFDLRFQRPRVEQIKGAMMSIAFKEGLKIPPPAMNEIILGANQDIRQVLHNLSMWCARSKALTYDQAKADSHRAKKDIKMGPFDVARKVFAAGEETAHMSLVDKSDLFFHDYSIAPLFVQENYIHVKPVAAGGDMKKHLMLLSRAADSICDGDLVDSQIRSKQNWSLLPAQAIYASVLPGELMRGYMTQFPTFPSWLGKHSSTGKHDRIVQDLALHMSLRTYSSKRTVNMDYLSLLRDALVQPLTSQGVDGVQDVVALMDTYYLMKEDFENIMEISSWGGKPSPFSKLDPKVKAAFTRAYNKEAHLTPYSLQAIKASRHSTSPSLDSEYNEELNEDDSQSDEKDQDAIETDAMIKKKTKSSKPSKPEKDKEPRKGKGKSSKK
UniProt Q9BTD8: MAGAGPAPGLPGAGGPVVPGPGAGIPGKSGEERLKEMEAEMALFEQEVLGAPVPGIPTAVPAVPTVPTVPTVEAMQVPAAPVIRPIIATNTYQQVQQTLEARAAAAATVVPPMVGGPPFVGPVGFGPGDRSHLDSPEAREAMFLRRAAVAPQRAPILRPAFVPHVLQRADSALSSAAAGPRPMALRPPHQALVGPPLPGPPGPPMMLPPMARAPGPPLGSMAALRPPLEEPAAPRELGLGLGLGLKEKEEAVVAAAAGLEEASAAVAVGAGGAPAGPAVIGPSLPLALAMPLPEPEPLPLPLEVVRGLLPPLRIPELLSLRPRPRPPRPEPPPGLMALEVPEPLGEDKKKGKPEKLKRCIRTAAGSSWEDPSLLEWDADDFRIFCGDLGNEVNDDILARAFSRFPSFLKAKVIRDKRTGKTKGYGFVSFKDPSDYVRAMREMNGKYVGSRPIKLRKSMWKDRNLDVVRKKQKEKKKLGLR

Legend:
Test in all cases: log2 fold change, soluble protein after heating vs DMSO (PISA); higher = thermal stabilisation; K562 lysate, 10 uM; active = over 0.2 and 3.5 SD of the protein, either way, in both replicates (recomputed)
erlotinib = compound: C#Cc1cccc(Nc2ncnc3cc(OCCOC)c(OCCOC)cc23)c1 [erlotinib]
Method in brief: (§1)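 Pellets of K562 cells were dounce-homogenised in PBS pH 7.4 with 1 mM MgCl2, and the crude extract was held at 1 mg/mL protein for a 30 min treatment with 10 μM compound. Aliquots were heated for 3 min over 48°C-58°C and pooled before NP-40 was added to 0.5% at 4°C. The supernatant from 21,000xg for 90 min was quantified by TMTpro 16plex LC-MS/MS with channel sums equalised. Values are reported from duplicates as log-two fold change in thermal stability relative to solvent controls.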

[1] = compound: C/C(=N\NC(=O)C1=CC(=CC=C1)S(=O)(=O)N2CCOCC2)/C3=C(C=CC(=C3)Cl)O
Method in brief: as §1

[2] = compound: C1=CC(=CC=C1C2=NC3=C(N2)C=C(C=C3)C(=O)N)OC4=CC=C(C=C4)Cl
Method in brief: as §1

[3] = compound: C1=CC2=C(C=CC(=C2)/C=C\3/C(=O)NC(=NCC4=CC=CS4)S3)N=C1
Method in brief: as §1

[4] = compound: C1=CC2=NC=CN=C2C=C1/C=C/3\C(=O)NC(=O)S3
Method in brief: as §1

[5] = compound: C1=CC=C(C=C1)C2=NC(=C(N2)C3=CC=NC=C3)C4=CC(=C(C=C4)Cl)O
Method in brief: as §1

[6] = compound: C1=CC=C2C(=C1)C3=NNC4=CC=CC(=C43)C2=O
Method in brief: as §1

[7] = compound: C1CCN(C1)C(=O)NC2=CC=CC(=C2)NC3=NC=C(C(=N3)NCCC4=CN=CN4)Br
Method in brief: as §1

[8] = compound: C1CN(CCC1(CC2=CC=C(C=C2)Cl)N)C3=NC=NC4=C3C=CN4
Method in brief: as §1

IRAK-1-4 Inhibitor I = compound: C1COCCN1CCN2C3=CC=CC=C3N=C2NC(=O)C4=CC(=CC=C4)[N+](=O)[O-] [IRAK-1-4 Inhibitor I]
Method in brief: as §1

Measured: log2 fold change

REPS1 (UniProt Q96D71)
inactive: erlotinib -0.015 | [1] 0.003 | [2] 0.014 | [3] -0.021 | [4] -0.036 | [5] -0.018 | [6] -0.086 | [7] -0.055 | [8] -0.028 | IRAK-1-4 Inhibitor I 0.014

RBM26 isoform 3 (UniProt Q5T8P6)
inactive: erlotinib -0.051 | [1] -0.171 | [2] 0.021 | [3] -0.052 | [4] -0.104 | [5] 0.045 | [6] -0.004 | [7] 0.049 | [8] -0.059 | IRAK-1-4 Inhibitor I -0.003

RBBP5 (UniProt Q15291)
inactive: erlotinib 0.005 | [1] -0.037 | [2] 0.028 | [3] -0.009 | [4] -0.035 | [5] -0.002 | [6] 0.006 | [7] 0 | [8] -0.005 | IRAK-1-4 Inhibitor I 0

RFC3 (UniProt P40938)
inactive: erlotinib 0.05 | [1] 0.01 | [2] -0.034 | [3] 0.024 | [4] 0.005 | [5] 0.005 | [6] -0.027 | [7] -0.002 | [8] 0.049 | IRAK-1-4 Inhibitor I 0.028

RBIS (UniProt Q8N0T1)
inactive: erlotinib 0.028 | [1] -0.093 | [2] 0.012 | [3] -0.031 | [4] -0.006 | [5] -0.097 | [6] 0.124 | [7] -0.029 | [8] 0.026 | IRAK-1-4 Inhibitor I 0.173

REEP6 (UniProt Q96HR9)
inactive: erlotinib -0.023 | [1] -0.026 | [2] 0.008 | [3] 0.077 | [4] -0.06 | [5] -0.029 | [6] -0.069 | [7] 0.021 | [8] -0.022 | IRAK-1-4 Inhibitor I -0.05

RDX (UniProt P35241)
inactive: erlotinib -0.013 | [1] 0.017 | [2] 0.014 | [3] -0.023 | [4] -0.032 | [5] 0.018 | [6] -0.009 | [7] 0.012 | [8] -0.025 | IRAK-1-4 Inhibitor I 0.006

RFC2 (UniProt P35250)
inactive: erlotinib -0.004 | [1] 0.017 | [2] -0.059 | [3] -0.017 | [4] 0.018 | [5] 0.004 | [6] -0.013 | [7] -0.011 | [8] -0.031 | IRAK-1-4 Inhibitor I -0.013

RASSF5 (UniProt Q8WWW0)
inactive: erlotinib -0.015 | [1] -0.143 | [2] -0.11 | [3] 0.017 | [4] -0.011 | [5] 0.025 | [6] 0.101 | [7] 0.051 | [8] 0.041 | IRAK-1-4 Inhibitor I 0.019

RBM15 (UniProt Q96T37)
inactive: erlotinib -0.035 | [1] -0.117 | [2] 0.04 | [3] -0.023 | [4] -0.101 | [5] 0.064 | [6] -0.047 | [7] -0.1 | [8] 0.014 | IRAK-1-4 Inhibitor I -0.288

RCE1 (UniProt Q9Y256)
inactive: erlotinib 0.242 | [1] -0.503 | [2] -0.051 | [3] 0.069 | [4] -0.022 | [5] -0.037 | [6] -0.308 | [7] 0.046 | [8] -0.049 | IRAK-1-4 Inhibitor I 0.034

RAPGEF6 isoform 4 (UniProt Q8TEU7)
inactive: erlotinib 0.022 | [1] -0.033 | [2] 0.022 | [3] 0.034 | [4] -0.005 | [5] -0.007 | [6] -0.052 | [7] -0.026 | [8] -0.015 | IRAK-1-4 Inhibitor I 0.014

RBM23 isoform 2 (UniProt Q86U06)
inactive: erlotinib -0.056 | [1] 0.007 | [2] 0.012 | [3] -0.106 | [4] 0.148 | [5] -0.052 | [6] 0.001 | [7] -0.175 | [8] 0.091 | IRAK-1-4 Inhibitor I -0.004

RBBP7 isoform 2 (UniProt Q16576)
inactive: erlotinib -0.036 | [1] 0.046 | [2] -0.036 | [3] -0.03 | [4] -0.013 | [5] -0.002 | [6] 0.055 | [7] 0.041 | [8] -0.026 | IRAK-1-4 Inhibitor I -0.006

RAPGEF5, A0A590UJR0
inactive: erlotinib -0.118 | [1] 0.006 | [2] 0.071 | [3] -0.163 | [4] -0.199 | [5] 0.043 | [6] -0.028 | [7] -0.049 | [8] -0.022 | IRAK-1-4 Inhibitor I 0.08

REEP5 (UniProt Q00765)
inactive: erlotinib 0.017 | [1] -0.041 | [2] 0.022 | [3] 0.036 | [4] 0.001 | [5] -0.008 | [6] -0.077 | [7] -0.008 | [8] 0.015 | IRAK-1-4 Inhibitor I 0.025

RCC1 isoform 2 (UniProt P18754)
inactive: erlotinib 0.016 | [1] 0.005 | [2] -0.033 | [3] 0 | [4] 0.017 | [5] 0.007 | [6] -0.024 | [7] -0.008 | [8] -0.043 | IRAK-1-4 Inhibitor I -0.022

RFWD3 (UniProt Q6PCD5)
inactive: erlotinib -0.12 | [1] 0.005 | [2] 0.048 | [3] -0.061 | [4] 0.062 | [5] 0.029 | [6] -0.039 | [7] -0.086 | [8] 0.053 | IRAK-1-4 Inhibitor I 0.054

RFC5 (UniProt P40937)
inactive: erlotinib 0.02 | [1] 0.024 | [2] -0.025 | [3] 0.036 | [4] -0.012 | [5] 0.029 | [6] -0.074 | [7] 0.004 | [8] 0.023 | IRAK-1-4 Inhibitor I 0.019

RELN (UniProt P78509)
inactive: erlotinib 0.012 | [1] 0.004 | [2] 0.014 | [3] 0.025 | [4] 0.001 | [5] 0.033 | [6] -0.015 | [7] 0.042 | [8] 0.058 | IRAK-1-4 Inhibitor I 0.002

REPIN1 isoform 4 (UniProt Q9BWE0)
inactive: erlotinib 0.059 | [1] -0.098 | [2] 0.114 | [3] -0.013 | [4] -0.041 | [5] -0.026 | [6] 0.007 | [7] -0.023 | [8] 0.072 | IRAK-1-4 Inhibitor I 0.007

RBM7 (UniProt Q9Y580)
inactive: erlotinib 0 | [1] 0 | [2] -0.085 | [3] -0.058 | [4] 0.036 | [5] -0.013 | [6] -0.016 | [7] 0.056 | [8] 0.051 | IRAK-1-4 Inhibitor I -0.035

REXO4 (UniProt Q9GZR2)
inactive: erlotinib -0.041 | [1] -0.195 | [2] -0.041 | [3] -0.084 | [4] -0.052 | [5] 0.027 | [6] -0.033 | [7] -0.022 | [8] 0.003 | IRAK-1-4 Inhibitor I -0.027

REL isoform 2 (UniProt Q04864)
inactive: erlotinib 0.022 | [1] -0.005 | [2] -0.048 | [3] 0.016 | [4] -0.017 | [5] 0.037 | [6] -0.019 | [7] -0.011 | [8] -0.02 | IRAK-1-4 Inhibitor I 0.019

RBM12 (UniProt Q9NTZ6)
inactive: erlotinib -0.011 | [1] -0.045 | [2] 0.018 | [3] 0.009 | [4] 0.008 | [5] 0.008 | [6] -0.037 | [7] -0.011 | [8] 0.026 | IRAK-1-4 Inhibitor I -0.021

RC3H1 (UniProt Q5TC82)
inactive: erlotinib 0.031 | [1] -0.042 | [2] 0.089 | [3] -0.129 | [4] 0.103 | [5] 0.003 | [6] -0.086 | [7] 0.077 | [8] -0.022 | IRAK-1-4 Inhibitor I 0.009

RBBP9 (UniProt O75884)
inactive: erlotinib -0.14 | [1] 0.161 | [2] -0.063 | [3] 0.058 | [4] -0.034 | [5] 0.115 | [6] 0.045 | IRAK-1-4 Inhibitor I -0.041

RBM6 (UniProt P78332)
inactive: erlotinib -0.005 | [1] 0.042 | [2] 0.082 | [3] -0.017 | [4] -0.063 | [5] 0.054 | [6] -0.07 | [7] -0.002 | [8] 0.009 | IRAK-1-4 Inhibitor I -0.006

RFC1 (UniProt P35251)
inactive: erlotinib -0.18 | [1] -0.017 | [2] -0.255 | [3] -0.053 | [4] -0.066 | [5] 0.062 | [6] -0.007 | [7] 0.002 | [8] -0.013 | IRAK-1-4 Inhibitor I -0.048

Quoted at random: 2 records from the list.
RFC1 (UniProt P35251)
inactive: erlotinib -0.18 | [1] -0.017 | [2] -0.255 | [3] -0.053 | [4] -0.066 | [5] 0.062 | [6] -0.007 | [7] 0.002 | [8] -0.013 | IRAK-1-4 Inhibitor I -0.048

RBM12 (UniProt Q9NTZ6)
inactive: erlotinib -0.011 | [1] -0.045 | [2] 0.018 | [3] 0.009 | [4] 0.008 | [5] 0.008 | [6] -0.037 | [7] -0.011 | [8] 0.026 | IRAK-1-4 Inhibitor I -0.021

Following part:

RBM42 (UniProt Q9BTD8)
inactive: erlotinib -0.034 | [1] -0.161 | [2] 0.073 | [3] -0.062 | [4] -0.018 | [5] -0.009 | [6] -0.05 | [7] -0.017 | [8] -0.014 | IRAK-1-4 Inhibitor I 0.049
